Experimental data published in doi:10.1101/2025.11.17.688879.
Results are given in words; binding and its absence hold for the method and conditions named. In cells and extracts the contact can be indirect. Binding can be weak; no strength is given. For some of these results: Tags and fused reporters may be left off the sequences shown. Each block holds one binder with its values, some of them ahead of it.

Sequences of proteins named here, by UniProt entry; tags and fusion partners are left off. A change or cut given only in a name is not applied to a line headed by its entry.
UniProt Q86WV6: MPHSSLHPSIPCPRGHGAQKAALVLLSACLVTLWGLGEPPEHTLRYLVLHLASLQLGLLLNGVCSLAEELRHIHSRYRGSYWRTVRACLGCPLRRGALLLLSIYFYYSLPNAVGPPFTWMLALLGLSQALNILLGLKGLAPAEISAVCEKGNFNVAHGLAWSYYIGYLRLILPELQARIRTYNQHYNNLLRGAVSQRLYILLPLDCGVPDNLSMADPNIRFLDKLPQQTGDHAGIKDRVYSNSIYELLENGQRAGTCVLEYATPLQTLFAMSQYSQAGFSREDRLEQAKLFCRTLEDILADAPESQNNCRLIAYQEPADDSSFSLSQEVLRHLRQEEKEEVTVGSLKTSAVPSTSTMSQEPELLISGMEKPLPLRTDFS

Tests used:
Experiment in all cases: co-IP
[1] = target: DrSTINGΔCTT (Danio rerio STING with the C-terminal tail ablated) (Danio rerio)
[2] = target: HA-MmSTINGΔCTTΔCBD (Mus musculus STING mutant comprising the TM domain alone) (Mus musculus)
[3] = target: MmSTINGΔCTT (Mus musculus STING with the C-terminal tail ablated) (Mus musculus)
[4] = target: HA-HsSTING-HAQ (human STING haplotype R71H-G230A-R293Q), expressed in HEK 293T (human) (UniProt Q86WV6)
[5] = target: HA-HsSTING-R232H (human STING haplotype R232H), expressed in HEK 293T (human) (UniProt Q86WV6)
[6] = target: HA-HsSTING-R232H stably expressed in THP-1 Sting-/- cells (THP-1^HsSTING-R232H) (human) (UniProt Q86WV6)
[7] = target: HA-HsSTING-R232H-ΔCTT stably expressed in THP-1 Sting-/- cells (THP-1^HsSTING-R232H-ΔCTT) (human) (UniProt Q86WV6)

binding [1]: binds
binding [2]: binds
binding [3]: binds
B1: MmFADS2-FLAG (fatty acid desaturase 2 of Mus musculus) (protein)
chain: MGKGGNQGEGSTERQAPMPTFRWEEIQKHNLRTDRWLVIDRKVYNVTKWSQRHPGGHRVIGHYSGEDATDAFRAFHLDLDFVGKFLKPLLIGELAPEEPSLDRGKSSQITEDFRALKKTAEDMNLFKTNHLFFFLLLSHIIVMESLAWFILSYFGTGWIPTLVTAFVLATSQAQAGWLQHDYGHLSVYKKSIWNHVVHKFVIGHLKGASANWWNHRHFQHHAKPNIFHKDPDIKSLHVFVLGEWQPLEYGKKKLKYLPYNHQHEYFFLIGPPLLIPMYFQYQIIMTMISRRDWVDLAWAISYYMRFFYTYIPFYGILGALVFLNFIRFLESHWFVWVTQMNHLVMEIDLDHYRDWFSSQLAATCNVEQSFFNDWFSGHLNFQIEHHLFPTMPRHNLHKIAPLVKSLCAKHGIEYQEKPLLRALIDIVSSLKKSGELWLDAYLHK

binding [4]: binds
binding [5]: binds
B2: HsFADS2-FLAG (human fatty acid desaturase 2) (protein, UniProt O95864 1-444)
chain: MGKGGNQGEGAAEREVSVPTFSWEEIQKHNLRTDRWLVIDRKVYNITKWSIQHPGGQRVIGHYAGEDATDAFRAFHPDLEFVGKFLKPLLIGELAPEEPSQDHGKNSKITEDFRALRKTAEDMNLFKTNHVFFLLLLAHIIALESIAWFTVFYFGNGWIPTLITAFVLATSQAQAGWLQHDYGHLSVYRKPKWNHLVHKFVIGHLKGASANWWNHRHFQHHAKPNIFHKDPDVNMLHVFVLGEWQPIEYGKKKLKYLPYNHQHEYFFLIGPPLLIPMYFQYQIIMTMIVHKNWVDLAWAVSYYIRFFITYIPFYGILGALLFLNFIRFLESHWFVWVTQMNHIVMEIDQEAYRDWFSSQLTATCNVEQSFFNDWFSGHLNFQIEHHLFPTMPRHNLHKIAPLVKSLCAKHGIEYQEKPLLRALLDIIRSLKKSGKLWLDAYLHK

binding [6]: binds
binding [7]: binds
B3: FADS2 of THP-1 human myeloid cells (protein, UniProt O95864 1-444)
chain: B2 chain
